In experiment [1] the target is Histidine-tagged human PD-1 protein (hPD-1-His) (human) (UniProt Q15116). The experiment is described as follows: SPR (Biacore T200), antibody captured on Protein A chip, human PD-1 (hPD-1-His by the method of paragraph 241 and paragraph 243) injected as analyte. (In general: Surface plasmon resonance follows binding to a sensor surface in real time, without labels.)

The chains behind the UniProt entries cited, without tags or fusion partners. Where a name states a change or a piece, a line headed by the entry shows the natural chain unless it says otherwise.
UniProt Q15116: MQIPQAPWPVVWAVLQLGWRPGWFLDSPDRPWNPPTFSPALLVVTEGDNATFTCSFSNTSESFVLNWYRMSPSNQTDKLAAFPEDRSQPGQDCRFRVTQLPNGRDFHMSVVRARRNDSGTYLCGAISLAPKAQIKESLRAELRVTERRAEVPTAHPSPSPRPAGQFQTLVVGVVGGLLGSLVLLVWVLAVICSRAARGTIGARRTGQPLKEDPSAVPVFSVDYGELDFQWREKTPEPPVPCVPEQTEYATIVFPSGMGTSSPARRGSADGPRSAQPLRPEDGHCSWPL

Experiment [2] has as its target monkey (rhesus macaque) PD-1 (rmPD-1) on transfected CHO cells (rhesus macaque). The experiment is described as follows: flow cytometry on CHO cells transfected with rmPD-1, antibody at 1 µg/ml. (In flow cytometry, cells or beads pass a laser one at a time.)
Experiment [3] has as its target human PD-1 (hPD-1) on transiently transfected CHO cells (human) (UniProt Q15116). As to the kind of experiment: flow cytometry on CHO cells transfected with human PD-1, anti-mIgG Fc-FITC.
Experiment [4] deals with chimeric (mouse and human) PD-1 (chiPD-1) on transfected CHO cells (chimeric (mouse and human)). As to the kind of experiment: flow cytometry on CHO cells transfected with chiPD-1, antibody at 1 µg/ml.

Numbering of substitutions follows the chain as printed. In names and notes the source's numbering stands. These are yes or no findings as the source states them, for the method shown. Some binding calls cover weakened binding; strength is not graded here.

B1: 3F1-mHvKv-IgG4-S228P (antibody, V domains shown)
VH: QVQLQQSGAELAKPGASVKMSCKASGYTFTSYWMHWVKQRPGQGLEWIGYINPSTGYTEYNQKFKDKATLTADKSSSTAYMQLSSLTSEDSAVYYCARGVRYYFDYWGQGTTLTVSS
VL: DIVMSQSPSSLAVSAGEKVTMSCKSSQSLLNSRTRKNYLAWYQQKPGQSPKLLIYWASTRESGVPDRFTGSGSGTDFTLTISSVQAEDLAVYYCKQSYNLLTFGAGTKLELK
notes: Chimeric antibody: mouse 3F1 variable domains, human IgG4 constant domains (CL, CH1, CH2, CH3) with S228P (EU numbering); also called 18-3F1-mHvKv-IgG4-S228P; 3F1-mHyKy-IgG4-S228P
With B1, the binding result in experiment [1] was “binds”.

B2: mouse anti-hPD-1 antibody 3-6G1 (antibody, V domains shown)
VH: B1 VH with V18L, F29L, S54N, V100T, R101A
VL: B1 VL with L101Q, A105G, L111I
notes: Mouse monoclonal antibody purified from ascites; also called 03-6G1
As to B2, the binding entry in experiment [2], in experiment [3] and in experiment [4] was “binds” in each case.

The record behind these values is patent US20250034256A1 (EUCURE BEIJING BIOPHARMA, published 2025).
